PubChem BioAssay AID1508597, Cure First – 2020
This is a random part of the about 2,100 reagents, in one setting of the screen. 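Calls flag viability under 80% in either arm, not effects specific to rucaparib; the reference for percent is not stated.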 A number with no mark means an inactive call. A reagent listed more than once was tested more than once; the source does not tell the runs apart. Reagent sequences are not shown. Not given: the 100% reference.

- Assay: 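Genes whose silencing sensitises or protects ovarian cancer cells against rucaparib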 (primary screen)
- System: human ovarian carcinoma lines grown from tumours: OCI-P5x (papillary serous) and OCI-C5x (clear cell)
- Reagent: siRNA pool against human genes, 1.25 pmol siRNA per well
- Duration: 72 h or 96 h, depending on the cell culture
- Challenge: rucaparib 20 µM (about IC30) or vehicle, present until read-out
- Rucaparib or vehicle: Vehicle
- Cell line: OCI-C5x (clear cell)
- Read-out: 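Luminescent ATP-based viability assay read 72 or 96 h after transfection, depending on culture, given as normalised percent viability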
- Scale: viability, normalised: higher = more viable cells remaining
- Hit rule: 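a well counts as a hit if its normalised viability is under 80 percent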
- Calls: active = viability under 80%; inactive = viability 80% or more

no.	target gene	PubChem SID	technical replicate	viability, normalised (%)
1	PARP11 (GeneID 57097)	SID405527106	1	36.8 (active)
2	PARP11 (GeneID 57097)	SID405527106	2	41.3 (active)
3	PARP11 (GeneID 57097)	SID405527106	3	39 (active)
4	ING1 (GeneID 3621)	SID405526896	1	60.1 (active)
5	ING1 (GeneID 3621)	SID405526896	2	64.5 (active)
6	ING1 (GeneID 3621)	SID405526896	3	43.5 (active)
7	WDR45B (GeneID 56270)	SID405526621	1	68.3 (active)
8	WDR45B (GeneID 56270)	SID405526621	2	54.9 (active)
9	WDR45B (GeneID 56270)	SID405526621	3	57 (active)
10	CHMP4A (GeneID 29082)	SID405528115	1	47.3 (active)
11	CHMP4A (GeneID 29082)	SID405528115	2	50.5 (active)
12	CHMP4A (GeneID 29082)	SID405528115	3	57.1 (active)
13	PDE4C (GeneID 5143)	SID405526691	1	68 (active)
14	PDE4C (GeneID 5143)	SID405526691	2	51.9 (active)
15	PDE4C (GeneID 5143)	SID405526691	3	51.3 (active)
16	PIP5K1A (GeneID 8394)	SID405528574	1	65.6 (active)
17	PIP5K1A (GeneID 8394)	SID405528574	2	71.8 (active)
18	PIP5K1A (GeneID 8394)	SID405528574	3	71.2 (active)
19	CHEK1 (GeneID 1111)	SID405527588	1	41.7 (active)
20	CHEK1 (GeneID 1111)	SID405527588	1	27.6 (active)
21	CHEK1 (GeneID 1111)	SID405527588	2	29.5 (active)
22	CHEK1 (GeneID 1111)	SID405527588	2	31.6 (active)
23	CHEK1 (GeneID 1111)	SID405527588	3	39.1 (active)
24	CHEK1 (GeneID 1111)	SID405527588	3	37.4 (active)
25	DNMT3L (GeneID 29947)	SID405528237	1	63.7 (active)
26	DNMT3L (GeneID 29947)	SID405528237	2	60.3 (active)
27	DNMT3L (GeneID 29947)	SID405528237	3	54.8 (active)
28	DNAJC2 (GeneID 27000)	SID405528231	1	48.9 (active)
29	DNAJC2 (GeneID 27000)	SID405528231	2	44 (active)
30	DNAJC2 (GeneID 27000)	SID405528231	3	42.5 (active)
31	BRD2 (GeneID 6046)	SID405527541	1	43.4 (active)
32	BRD2 (GeneID 6046)	SID405527541	1	22.9 (active)
33	BRD2 (GeneID 6046)	SID405527541	2	26.8 (active)
34	BRD2 (GeneID 6046)	SID405527541	2	59.7 (active)
35	BRD2 (GeneID 6046)	SID405527541	3	39.8 (active)
36	BRD2 (GeneID 6046)	SID405527541	3	32.6 (active)
37	F7 (GeneID 2155)	SID405526776	1	20.9 (active)
38	F7 (GeneID 2155)	SID405526776	2	20.8 (active)
39	F7 (GeneID 2155)	SID405526776	3	29.8 (active)

Ordered by “viability, normalised (%)” (high to low): 5 of the entries above.
target gene	PubChem SID	technical replicate	viability, normalised (%)
PIP5K1A (GeneID 8394)	SID405528574	2	71.8 (active)
PIP5K1A (GeneID 8394)	SID405528574	3	71.2 (active)
PIP5K1A (GeneID 8394)	SID405528574	1	65.6 (active)
PDE4C (GeneID 5143)	SID405526691	2	51.9 (active)
PDE4C (GeneID 5143)	SID405526691	3	51.3 (active)
